# PubChem BioAssay AID504467 (National Center for Advancing Translational Sciences (NCATS), 2011)
# The campaign covered roughly 330,000 compounds. About 7,700 (2.3%) were called active. The inconclusive results got no clear call from the source; some entries with a clear call stand among them for comparison. Calls follow the shape of the dose curve; as a rule, active = well fitted inhibition curve with a large enough effect; inconclusive = small, poorly fitted or top-dose-only effect, or effect the other way; inactive = flat fitted curve, though single readings scatter. Potencies beside an inconclusive call are fits to weak or partial responses and may not hold up.
# Assay: qHTS screen for small molecules that inhibit ELG1-dependent DNA repair in human embryonic kidney (HEK293T) cells expressing luciferase-tagged ELG1; also: nearly all actives have a fitted effect of over 55% in size
# Settings: HEK293T ELG1-luciferase reporter, luminescence, 16 h, DNA damage induced by 5-fluorouridine; activity change, negative = inhibition: at 46.1 µM (top of the series)
# Summary of the method: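 Quantitative HTS, concentration-response format. 2,000 cells/well co-treated with 5-fluorouridine and compound, 16 hr in 5% CO2 at 37 °C; ONE-Glo luminescence read after 30 min.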
# % is scaled to controls: 0 for no effect and ±100 for the full control effect; potency is read from the fitted curve at half-maximal effect.
Structure (SMILES),Potency,"activity change, negative = inhibition"
CCCCN1C(=O)c2ccc(C(=O)Nc3c(N)n(CCCC)c(=O)n(C)c3=O)cc2C1=O,inactive,–
CCOc1ccc(Nc2nc3ccccc3c(=O)s2)cc1,inactive,–
C=CCc1cccc(CNn2cnnc2)c1O,inactive,–
O=C(O)c1ccc(NC(=S)Nc2ccccc2)cc1,inactive,–
Cn1cccc1C(=O)NC1CCCCC1,"inconclusive: 11.6 µM [activator, single point]",–
CCOC(=O)C1=CN(Cc2cccc(-c3cccnc3)c2)S(=O)(=O)N(C)C1C (stereo unspecified),"inconclusive: 23.1 µM [inhibitor, partial curve, poor fit]",–
O=S1(=O)NC(C2CC2c2ccccc2)CCO1 (stereo unspecified),inactive,–
C/C(CC(=O)Nc1ccccn1)=N\NC(=O)c1ccc2ccccc2c1,"inconclusive: 29.1 µM [activator, single point]",–
COc1ccc(CNc2oc(-c3ccccc3)nc2C#N)cc1,"inconclusive: 16.4 µM [activator, single point]",–
Cc1ccnc(SCc2ccc(C(=O)O)cc2)n1,inactive,–
Cc1ccnc(NS(=O)(=O)c2ccc(N3C(=O)c4ccccc4C3=O)cc2)n1,"inconclusive: 16.4 µM [activator, partial curve, poor fit]",–
O=C(N/C=C\c1ccccc1)NCc1ccc(Cl)cc1,inactive,–
COc1ccc(C(=O)NCC(O)COc2ccc(C(C)(C)C)cc2)cc1[N+](=O)[O-] (stereo unspecified),"inconclusive: 29.1 µM [inhibitor, single point]",–
Nc1nnc(SCCOc2ccc(Br)cc2)s1,"inconclusive: 20.6 µM [activator, single point]",–
CC1(C)Oc2ccc3ccc(=O)oc3c2/C(=C/Nc2ccccc2)C1=O,"inconclusive: 6.51 µM [inhibitor, partial curve]",–
O=C(/C=C/c1ccc(O)cc1)c1ccc(O)cc1O,"inconclusive: 10.3 µM [activator, partial curve, poor fit]",–
O=C(N/N=C/c1ccc(O)cc1)c1ccc(NC(=O)c2ccccc2Br)cc1,"inconclusive: 2.91 µM [inhibitor, partial curve]",–
COc1ccc(/C=C(\NC(=O)c2ccc(OC)cc2)C(=O)N2CCCCC2)cc1,inactive,–
COC(=O)c1ccc(CN2CCCC(CO)(Cc3ccccc3F)C2)cc1 (stereo unspecified),inactive,–
O=C(Nc1nc(-c2ccccc2)cs1)c1ccccc1NS(=O)(=O)c1ccc(F)cc1,"inconclusive: 5.17 µM [inhibitor, single point]",–
COc1ccc(C)cc1S(=O)(=O)N(CC(=O)Nc1cccc([N+](=O)[O-])c1)c1ccc(C)c(C)c1,inactive,–
COc1ccc(N)c2c1C(=O)c1ccccc1C2=O,"inconclusive: 14.6 µM [activator, partial curve]",–
CCc1cc(C(=O)Nc2cc(S(=O)(=O)N(C)C)ccc2C)sc1C,"inconclusive: 29.1 µM [inhibitor, single point]",–

Structure (SMILES),Potency,"activity change, negative = inhibition"
O=C(NNc1nc2ccc(Cl)cc2s1)c1cc(-c2cccs2)nc2ccccc12,"inconclusive: 13 µM [inhibitor, partial curve]",–
CCCC(=O)Nc1ccc(NC(=O)c2cccc(OC)c2)nc1,"inconclusive: 20.6 µM [activator, partial curve]",–
O=C(/C=C/c1ccccc1Cl)Nc1ccc2c(c1)C(=O)NC2=O,inactive,–
C=CCNC(=O)NC(=O)COC(=O)COc1ccc(Br)cc1F,"inconclusive: 1.26 µM [inhibitor, single point]",–
COc1ccc(-c2cc(-c3cc(C)ccc3O)[nH]n2)cc1,"inconclusive: 3.66 µM [activator, full curve]",–
O=[N+]([O-])c1cc([N+](=O)[O-])c(Oc2cccnc2Br)cc1NN1CCCCC1,–,inconclusive: 9.03% [activator]
CC(C)C(=O)N1CCN(c2ccccc2NC(=O)c2ccc(Br)o2)CC1,"inconclusive: 23.1 µM [inhibitor, single point]",–
CCOC(=O)c1c(C)n(C)c2ccc(O)c(CN(C)C)c12,"inconclusive: 14.6 µM [inhibitor, partial curve, poor fit]",–
Cc1ccc(S(=O)(=O)N(CC(=O)NCCSc2ccccn2)c2ccc(C)c(C)c2)cc1,"inconclusive: 32.6 µM [inhibitor, single point]",–
O=C(CNC(=O)c1ccc(F)cc1)N/N=C/c1cc(Br)ccc1OCc1ccccc1,"inconclusive: 23.1 µM [inhibitor, partial curve]",–
COc1cccc(C(=O)Nn2c(-c3cccs3)nc3ccccc3c2=O)c1OC,"inconclusive: 25.9 µM [inhibitor, single point]",–
C=CCn1c(SCN2C(=O)c3ccccc3C2=O)nc2ccc(Cl)cc2c1=O,inactive,–
Cc1cccc(C(=O)NCC(=O)OCC(=O)c2ccc(C)s2)c1,inactive,–
COc1cc(C(=O)Nc2ccc(O)cc2)ccc1OC(C)=O,"inconclusive: 25.9 µM [activator, single point]",–
C/C(=N\Nc1ccc(C(=O)O)cc1)c1ccc2c(c1)Nc1ccccc1S2,"inconclusive: 14.6 µM [activator, partial curve]",–
CC(=O)c1ccccc1NC(=O)c1ccc2c(c1)NC(=O)C(C)S2 (stereo unspecified),"inconclusive: 4.61 µM [activator, single point]",–
COc1cccc(-c2c(C(=O)N/N=C(\C)c3cccs3)nnn2-c2nonc2N)c1,inactive,–
CCOC(=O)[C@@H]1[C@H]2COc3ccccc3[C@@H]2N2C(=O)N(c3cccc(Cl)c3)C(=O)[C@]12C,"inconclusive: 29.1 µM [activator, single point]",–
O=C(Nc1nnc(SCC(=O)N2CCCCC2)s1)c1ccccc1F,"inconclusive: 10.3 µM [activator, partial curve]",–
C=CCc1ccc(OCCCCN2CCC(C)CC2)c(OC)c1,inactive,–
Cc1cccc(NC(=O)c2ccc(C(=O)c3ccccc3)o2)c1,"inconclusive: 9.2 µM [activator, partial curve]",–
O=C1CCCC(O)=C1N=Nc1cccc(C(=O)O)c1,"inconclusive: 8.2 µM [activator, partial curve]",–
O=C(Nc1ccc(S(=O)(=O)N2CCCCC2)cc1)c1ccccc1F,inactive,–

# Among those listed so far, these have a COOH group.
Structure (SMILES),Potency,"activity change, negative = inhibition"
O=C(O)c1ccc(NC(=S)Nc2ccccc2)cc1,inactive,–
Cc1ccnc(SCc2ccc(C(=O)O)cc2)n1,inactive,–
C/C(=N\Nc1ccc(C(=O)O)cc1)c1ccc2c(c1)Nc1ccccc1S2,"inconclusive: 14.6 µM [activator, partial curve]",–
O=C1CCCC(O)=C1N=Nc1cccc(C(=O)O)c1,"inconclusive: 8.2 µM [activator, partial curve]",–
